Data as given in publication PMC6010280.

T1: intein-BHMT (betaine homocysteine S-methyltransferase) (R. norvegicus) (UniProt O09171)
T1 sequence: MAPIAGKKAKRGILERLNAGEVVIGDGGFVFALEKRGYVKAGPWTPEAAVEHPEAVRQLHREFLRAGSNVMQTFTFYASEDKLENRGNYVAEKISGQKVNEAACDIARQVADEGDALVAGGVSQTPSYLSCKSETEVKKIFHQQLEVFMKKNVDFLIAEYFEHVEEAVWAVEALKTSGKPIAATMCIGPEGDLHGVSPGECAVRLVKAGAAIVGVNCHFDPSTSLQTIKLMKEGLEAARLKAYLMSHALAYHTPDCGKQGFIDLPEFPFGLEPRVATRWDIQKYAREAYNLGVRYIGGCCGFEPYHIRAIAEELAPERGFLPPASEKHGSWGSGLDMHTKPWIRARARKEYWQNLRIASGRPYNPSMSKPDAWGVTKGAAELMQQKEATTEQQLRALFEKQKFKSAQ

B1: Centromere protein U (protein, UniProt Q4V8G7 1-410)
chain: MAARRSLRYSGDPGAKRSRNTLGSTNSRKQKAGQKPKRKDVFDFPNTSDVSSMLRELEEEEPYETFDPPLHSTAIYTDDELYKHCVSSTSPATHRGKESRNLNPSENEASGNDSIKLSAKKPRRKLEPISDESDSSEDNVRRSVSIERPRARKPPAAPAAASSSSSPSERPAEQVTPRKTSFPQPSAVEETPAAQSQLKTQKKVRPSPGRRKRPRRGSTHSDASESMHILCLEGKRQSDVMELDVVLSAFERTFLDYKQRVESESCNQAISKFYFKIKGELIRMLKEVQMLKALKRKNTKIISNMEKKRQRLIDVQDELIRLEPQLKQLQTKYDDLKKRKSALKNSKHFLSNLKQLYQDYSNVREEEPKEKEKYDSSSLPALLFKARSILGAEKHLKTINYHLGKLLKQD
B2: Serine/arginine-rich splicing factor 5 (protein, UniProt Q09167 1-269)
chain: MSGCRVFIGRLNPAAREKDVERFFKGYGRIRDIDLKRGFGFVEFEDPRDADDAVYELDGKELCSERVTIEHARARSRGGRGRGRYSDRFSSRRPRNDRRNAPPVRTENRLIVENLSSRVSWQDLKDFMRQAGEVTFADAHRPKLNEGVVEFASYGDLKNAIEKLSGKEINGRKIKLIEGSKRHRSRSRSRSRTRSSSRSRSRSRSRRSKSYSRSRSRSRSRSKSRSGSRSPVPEKSQKRGSSSRSKSPASVDRQRSRSRSRSRSVDSGN
B3: BHMT2 S-methylmethionine homocysteine S-methyltransferase (protein, UniProt Q68FT5 1-363)
chain: MAPAGGPRVKKVILERLDSGEVVVGDGGFLFTLEKRGFVKAGLWTPEAVVEYPSAVRQLHTEFLRAGADVLQTFTFSAAEDRMESKWEAVNAAACDLAQEVADGGAALVAGGICQTSLYKYHKDETRIKNIFRLQLGVFARKNVDFLIAEYFEHVEEAVWAVEVLREVGAPVAVTMCIGPEGDMHGVTPGECAVRLSRAGANIIGVNCRFGPWTSLQTMKLMKEGLRDAGLQAHLMVQCLGFHTPDCGKGGFVDLPEYPFGLEPRVATRWDIQKYAREAYNLGVRYIGGCCGFEPYHIRAIAEELAPERGFLPPASEKHGIWGSGLDMHTKPWIRARARREYWETLLPASGRPFCPSLSKPDA
B4: Transmembrane channel-like protein 5 (protein, UniProt Q5M7W4 1-965)
chain: MSSFHKNSSYMEDPDYPGYSGSQNHTQNYLRTQDDLEFPGCLDNPGFHHPRRNPYSSDSRTNPDYHHSLAEPDYPGSPSDADYQNTRCHPRSAHPRTRPDYEPDYEPDYNDFQSESYHPDLSMEPDYPGSHGHPGFAGVRSSVNSTGPRTNLGYLDLEEPDYPGAQGNSYHSGPRSHSNLPGSRRNAGYAGSRINSYPDSLGEPDYPGAENQPNSPDFYGKPDYPGAEEGDVYSPSKTLGVIGRSRGSFGILGREDGDYPEGIEMASLGMAGDPRNGYVNPAYMRGSSPVCPDRNLLLCARDWNTSPQGQKLIASLVPMTSRDRIKTIRNQPRTMQEKRELRKIVDKEKNKQSHGTFEANCCAQCLSSLSLAYRRTKSSLSELLNYISLWQKRFKVIGGKFGTSVLSYFSFLRWLLKFNIFSFVMNFSFIIIPQFTVGEKNTLQFTGLEFFTGAGYFRETVMYYGFYTNSTIRHRMGGASYNMQLAYIFTIGACLVICFFSLLFSMAKYFRNNFINPHIYSRGIAKLIFCWDFTVTHEKAVKLKQKNLSTEIRENLSEIRQENDRLTLNQKLTRFSVHVAAWLVSTGITAACCVAVYYLAEYNSEFLKTHKNPGAVLLLPFVVSCINLAVPRFYSMFRLVERYEIPRQEVYVLLIRNIFLKISIVGILCYYWLNIVALSGEECWETLIGQDIYRLLLMDFVFSLADSLLGEFLRRLIGMKFITSLSLQEFDIARNVLELIYAQTLAWLGIFFCPLLPFIQMITLFIMFYVKNVSLMMNFQPPSKAWRASQMITFFIFLLFFPSFTGVLCTLAITIWRLKPSADCGPFRGLPSFIQSIYSWIDTLSHRPGYLWVVWIYQNLIGSVHFFFILTLIVLIITYLYWQITEGRKVMIRLLHEQIINEGKDKMFLIEKLTKLQDIERRANPSTLVLERREVEQQSPLHLEELDAAPDLRLRRSMQEENAIA
B5: Transmembrane emp24 domain-containing protein 9 (protein, UniProt Q5I0E7 38-235)
chain: LYFHIGETEKKCFIEEIPDETMVIGNYRTQLYDKQREEYQPATPGLGMFVEVKDPEDKVILARQYGSEGRFTFTSHTPGEHQICLHSNSTKFSLFAGGMLRVHLDIQVGEHANDYAEIAAKDKLSELQLRVRQLVEQVEQIQKEQNYQRWREERFRQTSESTNQRVLWWSILQTLILVAIGVWQMRHLKSFFEAKKLV
B6: ATP-sensitive inward rectifier potassium channel 11 (protein, UniProt P70673 1-390)
chain: MLSRKGIIPEEYVLTRLAEDPTEPRYRTRERRARFVSKKGNCNVAHKNIREQGRFLQDVFTTLVDLKWPHTLLIFTMSFLCSWLLFAMVWWLIAFAHGDLAPGEGTNVPCVTSIHSFSSAFLFSIEVQVTIGFGGRMVTEECPLAILILIVQNIVGLMINAIMLGCIFMKTAQAHRRAETLIFSKHAVITLRHGRLCFMLRVGDLRKSMIISATIHMQVVRKTTSPEGEVVPLHQVDIPMENGVGGNSIFLVAPLIIYHVIDSNSPLYDLAPSDLHHHQDLEIIVILEGVVETTGITTQARTSYLADEILWGQRFVPIVAEEDGRYSVDYSKFGNTVKVPTPLCTARQLDEDRSLLDALTLASSRGPLRKRSVAVAKAKPKFSISPDSLS
B7: 2',5'-oligoisoadenylate synthetase-dependent ribonuclease L (protein, UniProt Q80WM6 1-738)
chain: METTDHSTPQCGSASAGGQKTVGKDDYLLIEAVNKGDADRVQQLLEQGADANVCEESGGWTPLHNAVQSGRVDIVNLLLRYGADPHRRKKNGATPFIVAGICGDVSLLQIFLSRGANINERDMYGFTAFMEAAEYGNVEALKFLFAEGADVNLRRETTEDRRRLKQGGATALMSAAENGHPEVVRILLDEMKAEADARDNMGRNALIRSLLNRDCENVEIHVEEITSVLIQYGADINVRGEGEKTPLISAVKRKHTGLVQMLLSQEGIKVNDRDSEGKTALQIAVELKLKEIVRLLLEKGADTKCGDLVWIAKRNYDHGLVKLLLSYEANHDTNPPAKDWLPHSARWGEALERLHSVSRPMTGKLKIFMNDDYKIASTSEGGIYLGIYDNREVAVKVFCENSSRGRKEVSCLRDCGDHSNLLTFYGSEEHKGSLYVCVSLCESTLEKFLNVPREEPMEKGEDKFALSVLLSIFKGVQKLHMHGYSHQNLQPPNILIDSEKAVRLADFDESIQWMRESQTVQRDLEDLGRLVLYVVNKGEIPFETLKGQNDEELLTIAPNEETKDLVHCLFSPGENVKNCLMDLLGHPFFWTWENRYRTLRDVGNESDIKVRNNKSKLLKLLQPQTHAPSRSFDRWTSKIDKRVMSDMNGFYKSRKGYRDTVGDLLKFIRNIGEHINEEKNRQMKEILGDPSRYFQETFPDLVIYIYKKLKETEFRKHFPQPPPSLSVPEAAGPGGVQS
B8: Cullin-associated NEDD8-dissociated protein 2 (protein, UniProt Q9R0L4 1-1273)
chain: MSTGAFYISSLLEKMTSSDKDFSPKSLGGSRVLDPLPWLQILAAITDWISGDRTQDLALPRFMATSDLMSELQKDSIQLDEDSERKVVRTLLRLLEDRSGEVQNLAVKCLGPLVGKVKEYQVENIVDTLCANMRSDKEQLRDIAGIGLKTVLSELPPAATGSGLAISVCRKITGQLTSAIAQQEDVAVQLEALDILSDMLSRLGAPLGTFHASLLHCLLPQLSSPRLAVRKRTVVALGHLAAACSTDLFVELADHLVDRLPGPRAPASPAAIRTLIQCLGSVGRQAGHRLGAHLDRLMPLVEEFCNLDDDELRESCLQAFEAFLRKCPKEMDPHVPNVTSLCLQYMKHDPNYNHDSDEEEQMETEDSEFSEQESEDEYSDDDDMSWKVRRAAAKCMAALISSRPDLLPDFHCTLAPALIRCFKEREENVKADIFGAYIMLLRHTRPPKGWLEAVEEPTQTGRNLNMLRAQVPLVMKALQRQLKDRNVRTRQGCFNLFTELAGVLPGCLAEHMTVLVSGIVFSLADYSSSSTIRMDALAFLQGLLGTEPAEAFHPHLPTLLPPVMACVADPFYKVAAEALLVLQELVRTLWPLDRPRLLDPEPYVGEMSTATLARLRATDLDQEVKERAISCVGHLVGHLGDRLGDDLEPTLLLLLDRLRNEITRLPAVKALTLVAVSPLRLDLQPILAEALPILASFLRKNQRALRLATLAALDALAQSQGLGLPPPAVRSVLAELPALVSENDMHVAQLAVDFLTTVTQTQPASLVEVSGPVLEELLQLLHSPLLPAGVLAATEGFLQALVGTRPPCVEYSELISLLTAPVYNQVGDGGPGLHKQVFHSLARCVAALSAACPQEAAGTASRLVCDARSPHSSTGVKVLAFLSLAEVGQVAGPGPQRELKTVLLEALGSPSEDVRAAAAYALGRVGAGNLPDFLPFLLAQIEAQPRRQYLLLHALREALGAAQPDNLKPYVEDVWALLFQRCESPEEGTRCVVAECIGKLVFVNPPFLLPRFRKQLAAGQPYTRSTVITAVKFLISDQPHSIDPLLKSFIAEFMESLQDPDLNVRRATLTFFNSAVHNKPSLVRDLLDDILPLLYQETKIRRDLIREVEMGPFKHTVDDGLDVRKAAFECMYSLLESCLGQLDICEFLNHVEDGLKDHYDIRMLTFIMLARLAALCPAPVLQRVDRLIEPLRATCTAKVKAGSVKQELEKQDELKRSAMRAVAALMTNPEVRKSPSVADFSTQIRSNPELATLFESIQKDTASGPSMDSMELS
B9: Zinc finger CCCH-type antiviral protein 1 (protein, UniProt Q8K3Y6 1-776)
chain: MADPGVCCFITKILCAHGGRMTLEELLGEIRLPEAQLYELLETAGPDRFVLLETGGQAGITRSVVATTRARVCRRKYCQRPCDSLHLCKLNLLGRCHYAQSQRNLCKYSHDVLSEQNFQILKNHELSGLNQEELACLLVQSDPFFLPEICKSYKGEGRKQTCGQPQPCERLHICEHFTRGNCSYLNCLRSHNLMDRKVLTIMREHGLSPDVVQNIQDICNNKHARRNPPGTRAAHPHRRGGAHRDRSKSRDRFLHNSLEFLSPVVSPLGSGPPSPDVTSCKDSLEDVSVDVTQKFKYLGTHDRAQLSPVSSKAAGVQGPSQMRASQEFSEDGNLDDIFSRNRSDSSSSRASAAKVAQRNEAVAMKMGMEVKGKKEAPDIDRVPFLNSYIDGVTMEKASVSGIPGKKFTANDLENLLLLNDTWKNVAKPQDLQTTGRITDSGQDKAFLQNKYGGNPVWASASTHNAPNGSSQIMDETPNVSKSSTSGFAIKPAIAGGKEAVYSGVQSPRSQVLAVPGEATTPVQSNRLPQSPLSSSSHRAAASGSPGKNSTHTSVSPAIESSRMTSDPDEYLLRYILNPLFRMDNHGPKEICQDHLYKGCQQSHCDRSHFHLPYRWQMFVYTTWRDFQDMESIEQAYCDPHVELILIENHQINFQKMTCDSYPIRRLSTPSYEEKPLSAVFATKWIWYWKNEFNEYIQYGNESPGHTSSDINSAYLESFFQSCPRGVLPFQAGSQKYELSFQGMIQTNIASKTQRHVVRRPVFVSSNDVEQKRRGPE

Biological target: T1, intein-BHMT (betaine homocysteine S-methyltransferase) (R. norvegicus)
Experiment: affinity purification with mass spectrometry; same intein-BHMT chitin column after the salt gradient; proteins recovered together with BHMT upon intein excision with 30 mM 2-mercaptoethanol, 48 h at 23°C (strong interactors); LC-MS/MS; only the target purified

Binder | binding
B1 | binds
B2 | binds
B3 | binds
B4 | binds
B5 | binds
B6 | binds
B7 | binds
B8 | binds
B9 | binds

No constants are given. Whether binding was seen depends on the method and setting. In cells and extracts the contact can be indirect. A yes stands for co-enrichment or nearness to the bait. Other partners may have been found.
